Binding data for four molecules are collected here from paper PMC4150532.

No constants are given. Whether binding was seen depends on the method and setting. In cells and extracts the contact can be indirect. Some binding calls cover weakened binding; strength is not graded here. Where a sequence is shown, tags or fusion partners need not be part of it.

Assay [1] deals with T1, Elp1–GFP (GFP-tagged wild-type Elp1, largest subunit of the Elongator complex) (S. cerevisiae) (UniProt Q06706).
T1 sequence: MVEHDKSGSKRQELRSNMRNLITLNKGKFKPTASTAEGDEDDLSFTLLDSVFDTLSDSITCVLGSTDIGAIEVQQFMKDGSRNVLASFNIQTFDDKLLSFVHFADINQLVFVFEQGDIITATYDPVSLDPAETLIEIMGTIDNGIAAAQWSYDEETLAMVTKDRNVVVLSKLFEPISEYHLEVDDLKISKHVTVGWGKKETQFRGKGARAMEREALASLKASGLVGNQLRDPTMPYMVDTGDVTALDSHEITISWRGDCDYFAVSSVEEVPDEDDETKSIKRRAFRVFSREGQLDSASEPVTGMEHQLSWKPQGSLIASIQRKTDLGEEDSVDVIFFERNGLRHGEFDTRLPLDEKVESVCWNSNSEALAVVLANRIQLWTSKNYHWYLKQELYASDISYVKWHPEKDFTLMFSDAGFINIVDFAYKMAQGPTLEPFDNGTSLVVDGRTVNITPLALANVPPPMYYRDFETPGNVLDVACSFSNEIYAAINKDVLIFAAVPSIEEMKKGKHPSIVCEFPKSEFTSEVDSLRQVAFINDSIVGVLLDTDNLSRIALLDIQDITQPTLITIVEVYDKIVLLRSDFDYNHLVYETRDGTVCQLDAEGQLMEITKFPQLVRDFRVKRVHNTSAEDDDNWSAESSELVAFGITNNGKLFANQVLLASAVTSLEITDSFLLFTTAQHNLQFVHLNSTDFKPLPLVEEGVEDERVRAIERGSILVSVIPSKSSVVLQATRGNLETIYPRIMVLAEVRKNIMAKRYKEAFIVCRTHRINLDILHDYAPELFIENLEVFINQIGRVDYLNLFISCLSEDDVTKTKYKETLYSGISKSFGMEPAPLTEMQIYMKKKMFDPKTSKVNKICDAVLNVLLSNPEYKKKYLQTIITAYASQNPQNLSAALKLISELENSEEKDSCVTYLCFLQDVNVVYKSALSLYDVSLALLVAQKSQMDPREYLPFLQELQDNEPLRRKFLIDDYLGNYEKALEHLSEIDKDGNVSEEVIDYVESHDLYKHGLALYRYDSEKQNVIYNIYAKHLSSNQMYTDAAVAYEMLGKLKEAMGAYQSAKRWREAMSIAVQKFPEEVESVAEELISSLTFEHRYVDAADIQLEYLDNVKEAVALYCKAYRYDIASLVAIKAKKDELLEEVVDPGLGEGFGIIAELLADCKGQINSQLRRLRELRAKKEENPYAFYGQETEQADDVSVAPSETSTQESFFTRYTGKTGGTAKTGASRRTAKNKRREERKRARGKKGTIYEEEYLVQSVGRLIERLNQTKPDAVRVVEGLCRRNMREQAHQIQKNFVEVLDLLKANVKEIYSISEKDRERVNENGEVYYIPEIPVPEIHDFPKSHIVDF
In words: co-IP; GFP–Trap beads precipitate the GFP-tagged protein from yeast lysate; HA-tagged partners found by anti-HA blot and measured by densitometry; lysis buffer 50 mM HEPES-KOH pH 7.5, 150 mM NaCl, 2 mM MgCl2, 0.1% Triton X-100; 4°C.

Assay [2] has as its target T1, Elp1–GFP (GFP-tagged wild-type Elp1, largest subunit of the Elongator complex) (S. cerevisiae). In words: co-IP; GFP–Trap beads precipitate genomic GFP-tagged Elp1 from lysate of yeast that also carry a plasmid copy of 6HA-tagged Elp1; anti-HA blot; done in strains with ELP5 and repeated in elp5Δ strains; 150 mM NaCl, 4°C.

B1: Kti12-3HA (HA-tagged Elongator accessory protein Kti12) (protein, UniProt P34253 1-313)
chain: MPLVLFTGYPCSGKTTLAKHLVQLLQSKIDATPSLSKYSITYHSDESLGIKHSDYITSQDERKLRSEIISAVKRDLSKNKIVIVDSLNYIKGFRYQLHCEVKNLSTTFCVIQTLCPPETIFEWNKTSNPNPWEPELLNQLIQRYEEPNSSNRWDSPLFAILTPQDNITDYIDDICKVVFQTSKSAKNSGHNDPLSKGLQKPNSATVLKPASQSNFIQVLDIETSKIIKTIMNHIKSLTSIGGVSNGTRVIVSEGITDINDDGCFFVDLPIGNVVTLAQLQRLKRQFINFNKLRDIDQDRIGPLFADYLNKNLN
For the molecule B1, in assay [1], the binding entry is “binds”.

B2: Elp5-3HA (HA-tagged Elp5 subunit of Elongator) (protein, UniProt P38874 1-309)
chain: MASSSHNPVILLKRILSLTESSPFILCLDSIAQTSYKLIQEFVHQSKSKGNEYPIVYISFETVNKPSYCTQFIDATQMDFVHLVKQIISYLPAATATQAKKHMVIIDSLNYISTEYITRFLSEIASPHCTMVATYHKDIKDENRTVIPDWNNNYPDKLTLLQFMATTIVDIDVVLTGTLDTEEVSELLNEFRIPRGLNNDIFQLRLVNKRKSGRSLEYDFIVNSNTHEYELLSTTKQEEESSSNGLETPEMLQGLTTFNLGTSNKQKLAKDQVALPFLEAQSFGQGGAIVYEYEKDDDYDEEDPYEDPF
On to B2, for which the binding entry in assay [1] is on record as “binds”.

B3: Elp1–6HA (6HA-tagged wild-type Elp1 from YCplac111–ELP1–6HA) (protein, UniProt Q06706 1-1349)
chain: MVEHDKSGSKRQELRSNMRNLITLNKGKFKPTASTAEGDEDDLSFTLLDSVFDTLSDSITCVLGSTDIGAIEVQQFMKDGSRNVLASFNIQTFDDKLLSFVHFADINQLVFVFEQGDIITATYDPVSLDPAETLIEIMGTIDNGIAAAQWSYDEETLAMVTKDRNVVVLSKLFEPISEYHLEVDDLKISKHVTVGWGKKETQFRGKGARAMEREALASLKASGLVGNQLRDPTMPYMVDTGDVTALDSHEITISWRGDCDYFAVSSVEEVPDEDDETKSIKRRAFRVFSREGQLDSASEPVTGMEHQLSWKPQGSLIASIQRKTDLGEEDSVDVIFFERNGLRHGEFDTRLPLDEKVESVCWNSNSEALAVVLANRIQLWTSKNYHWYLKQELYASDISYVKWHPEKDFTLMFSDAGFINIVDFAYKMAQGPTLEPFDNGTSLVVDGRTVNITPLALANVPPPMYYRDFETPGNVLDVACSFSNEIYAAINKDVLIFAAVPSIEEMKKGKHPSIVCEFPKSEFTSEVDSLRQVAFINDSIVGVLLDTDNLSRIALLDIQDITQPTLITIVEVYDKIVLLRSDFDYNHLVYETRDGTVCQLDAEGQLMEITKFPQLVRDFRVKRVHNTSAEDDDNWSAESSELVAFGITNNGKLFANQVLLASAVTSLEITDSFLLFTTAQHNLQFVHLNSTDFKPLPLVEEGVEDERVRAIERGSILVSVIPSKSSVVLQATRGNLETIYPRIMVLAEVRKNIMAKRYKEAFIVCRTHRINLDILHDYAPELFIENLEVFINQIGRVDYLNLFISCLSEDDVTKTKYKETLYSGISKSFGMEPAPLTEMQIYMKKKMFDPKTSKVNKICDAVLNVLLSNPEYKKKYLQTIITAYASQNPQNLSAALKLISELENSEEKDSCVTYLCFLQDVNVVYKSALSLYDVSLALLVAQKSQMDPREYLPFLQELQDNEPLRRKFLIDDYLGNYEKALEHLSEIDKDGNVSEEVIDYVESHDLYKHGLALYRYDSEKQNVIYNIYAKHLSSNQMYTDAAVAYEMLGKLKEAMGAYQSAKRWREAMSIAVQKFPEEVESVAEELISSLTFEHRYVDAADIQLEYLDNVKEAVALYCKAYRYDIASLVAIKAKKDELLEEVVDPGLGEGFGIIAELLADCKGQINSQLRRLRELRAKKEENPYAFYGQETEQADDVSVAPSETSTQESFFTRYTGKTGGTAKTGASRRTAKNKRREERKRARGKKGTIYEEEYLVQSVGRLIERLNQTKPDAVRVVEGLCRRNMREQAHQIQKNFVEVLDLLKANVKEIYSISEKDRERVNENGEVYYIPEIPVPEIHDFPKSHIVDF
As for B3, the binding entry in assay [2] is recorded as “binds”.

B4: Elp3-3HA (HA-tagged Elp3 subunit of Elongator) (protein, UniProt Q02908 1-557)
chain: MARHGKGPKTNKKKLAPEKERFIQCCADITLELTDSLTSGTTREINLNGLITKYSKKYKLKQQPRLTDIINSIPDQYKKYLLPKLKAKPVRTASGIAVVAVMCKPHRCPHIAYTGNICVYCPGGPDSDFEYSTQSYTGYEPTSMRAIRARYDPYEQARGRVEQLKQLGHSIDKVEYVLMGGTFMSLPKEYREDFIVKLHNALSGFNGNDIDEAILYSQQSLTKCVGITIETRPDYCTQTHLDDMLKYGCTRLEIGVQSLYEDVARDTNRGHTVRSVCETFAVSKDAGYKVVSHMMPDLPNVGMERDIEQFKEYFENPDFRTDGLKIYPTLVIRGTGLYELWKTGRYKSYSANALVDLVARILALVPPWTRIYRVQRDIPMPLVTSGVDNGNLRELALARMKDLGTTCRDVRTREVGIQEVHHKVQPDQVELIRRDYYANGGWETFLSYEDPKKDILIGLLRLRKASKKYTYRKEFTSQRTSIVRELHVYGSVVPLHSRDPRKFQHQGFGTLLMEEAERIAKEEHGSEKISVISGVGVRNYYGKLGYELDGPYMSKRI
B4: the binding result in assay [1] is on record as “binds”.
